The results in this text go back to PubChem BioAssay AID445 (National Center for Advancing Translational Sciences (NCATS), 2006).

Some of the results follow. Shown are side measurements of this screen, not its main read-out; they come without a call. Most of these compounds were active or inconclusive in the main read-out, so they are no random draw. Potencies come from curve fits of mixed quality, noted in brackets.

A word on the AC50: it is the midpoint of the concentration-response curve, whichever way the signal moves.

This assay is described as follows: IkB Signaling. The conditions noted are these: ABC-DLBCL IkBa-CBG/CBR dual luciferase ratio (green luciferase fused to IkBa over red control in OCI-Ly3 lymphoma cells), 4 h. A digest of the protocol:
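In this assay, an IκBα–CBG68 fusion accumulates when IKK-driven degradation is blocked; native CBR normalizes for cell number. OCI-Ly3 cells were treated 4 h with compound and doxycycline, then green and red light read after Chroma-Glo addition.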

Where [1] appears, read: measured here: control luc red channel unless noted.

For the molecule `CC(=O)N1c2ccc(S(=O)(=O)N3CCN(c4cccc(Cl)c4)CC3)cc2CC1C` (configuration not stated), under setting [1], the concentration at half-maximal activity (AC50) is 0.2 µM [falling, full curve, poor fit].

For `COc1cccc(NC(=O)Cn2c(=O)n(CC(=O)NCCc3ccccc3)c(=O)c3sccc32)c1`, the half-maximal activity concentration (AC50) under setting [1] was 31.6 µM [falling, single point].

Turning to `Cc1ccc2nc(-c3ccco3)c(Nc3ccc4c(c3)OCCO4)n2c1`, the half-maximal activity concentration (AC50) under setting [1] was 20 µM [falling, partial curve].

`CCn1c(SCC(N)=O)nc2c(c1=O)C1(CCCC1)Cc1ccccc1-2`: the AC50 under setting [1] was 25.1 µM [falling, single point].

With `CCc1c(C)nc2nc(-c3ccccc3)nn2c1NCc1ccc(C)cc1`, under setting [1], the AC50 was 12.6 µM [falling, partial curve].

In the case of `COc1cccc2[nH]c(C(=O)NCc3ccc4c(c3)CCN4C(=O)c3ccc(F)cc3)cc12`, the AC50 under setting [1] is 3.16 µM [falling, partial curve, poor fit].

`CN(C)c1ccc(/C=N/n2ncc3ccccc32)cc1`: the half-maximal activity concentration (AC50) under setting [1] was 3.16 µM [falling, partial curve].

For `CCC(C)(C)n1nnnc1C(c1cccs1)N1CCN(c2nc3ccccc3s2)CC1` (configuration not stated), the concentration at half-maximal activity (AC50) under setting [1] is 12.6 µM [falling, partial curve].

Consider `Clc1ccccc1-c1nnc2sc(C3COc4ccccc4O3)nn12` (configuration not stated), for which, under setting [1], the AC50 is 20 µM [falling, single point].

For `COc1ccc(CNC(=O)c2ccc(-c3nc(CS(=O)c4ccc(C)cc4)c(C)o3)cc2)cc1` (configuration not stated), the AC50 under setting [1] is 10 µM [falling, single point].

For `COc1ccc2c(c1)c(=O)c(C(=O)c1ccc(Cl)cc1)cn2CC(=O)Nc1ccc2c(c1)OCCO2`, the AC50 runs as follows: (measured here: IkB-luc green channel) 39.8 µM [rising, single point]; (measured here: control luc red channel) 15.8 µM [falling, partial curve].

With `O=C1CC2(CCCC2)CC(=O)N1CCCCN1CCN(c2ncccn2)CC1`, under setting [1], the half-maximal activity concentration (AC50) was 12.6 µM [rising, partial curve, poor fit] [measured here: IkB-luc green channel].

Turning to `CCOc1cc(C2C(C(=O)OC)=C(C)NC3=C2C(=O)c2ccccc23)cc(Br)c1OCC` (configuration not stated), the AC50 under setting [1] was 15.8 µM [falling, partial curve].

As for `COc1ccc(CNC(=O)CS(=O)(=O)c2cccc3nsnc23)cc1`, the AC50 under setting [1] is 1 µM [rising, full curve].

Take `Cc1ccc(OC(=O)CSc2nnc(-c3cccs3)o2)c(C)c1`: under setting [1], the half-maximal activity concentration (AC50) is 7.94 µM [falling, partial curve].

For `CC1=C(C(=O)OC2CCCCCC2)C(c2ccc(Cl)cc2)CC(=O)N1` (configuration not stated), under setting [1], the AC50 was 25.1 µM [falling, single point].

`CC(=O)OCC(=O)[C@@]1(O)CC[C@@H]2[C@H]3CCC4=CC(=O)CC[C@]4(C)[C@]3(F)[C@@H](O)C[C@@]21C`: the AC50 under setting [1] is 12.6 nM [rising, full curve] [measured here: IkB-luc green channel].

As for `Cc1cc(C)n(-c2ccc(C(=O)N3CCc4ccccc43)cc2)n1`, the half-maximal activity concentration (AC50) under setting [1] is 25.1 µM [falling, partial curve].

`CCc1cc2cccc(C)c2nc1SCC(=O)N1CCN(C(=O)c2ccco2)CC1`: the AC50 under setting [1] is 25.1 µM [falling, partial curve].

Consider `Cc1cccc(C(=O)Nc2ccc(S(=O)(=O)N3CCCCC3c3cccnc3)cc2)c1` (configuration not stated), for which the concentration at half-maximal activity (AC50) under setting [1] is 20 µM [falling, partial curve].

`Cc1ccc(-n2ncc3c(N4CCN(Cc5ccccc5)CC4)ncnc32)cc1`: under setting [1], the AC50 is 12.6 µM [falling, partial curve].

In the case of `Cc1ccc(CNC(=O)C(C)n2c(=O)cc(-c3ccccc3)c3c(C)nn(C)c32)cc1` (configuration not stated), the AC50 under setting [1] is 39.8 µM [falling, single point].

Regarding `Cc1ccc2nc(-c3c[nH]c4ccccc34)c(Nc3ccc(F)cc3)n2c1`, the AC50 under setting [1] was 0.0126 µM [falling, full curve].

As for `O=C(CN(C1CC1)S(=O)(=O)c1ccc(S(=O)(=O)NC2CCCCC2)cc1)Nc1ccccc1`, under setting [1], the AC50 was 15.8 µM [falling, partial curve].

For `COc1ccccc1N1CCN(C(=O)c2ccc3c(c2)CCN3S(=O)(=O)c2ccccc2)CC1`, the half-maximal activity concentration (AC50) under setting [1] is 12.6 µM [falling, partial curve].

In the case of `COc1ccc2c(Sc3ccccc3)c(C(=O)NCc3cc(Br)ccc3OC)[nH]c2c1`, the concentration at half-maximal activity (AC50) under setting [1] is 3.16 µM [falling, full curve].

For the molecule `CCCn1ccc2c(OCC(=O)Nc3ccc(OC)c(OC)c3)cccc2c1=O`, under setting [1], the concentration at half-maximal activity (AC50) was 31.6 µM [falling, partial curve].

Consider `COc1ccccc1CNC(=O)c1ccc(CSc2nc3ccncc3n2Cc2cccc(F)c2)cc1`, for which the AC50 under setting [1] was 15.8 µM [falling, partial curve].

With `Cc1ccc2c(=O)cc(C(=O)Nc3nc4ccc(Cl)cc4s3)oc2c1`, the AC50 under setting [1] is 1.58 µM [falling, full curve].

`Cc1cccc(-c2cc3nc4c(c(N5CCOCC5)n3n2)CCCC4)c1`: under setting [1], the half-maximal activity concentration (AC50) is 20 µM [falling, single point].

For `COc1ccc(CCNc2nc3c(c(=O)n(C)c(=O)n3C)n2Cc2ccccc2Cl)cc1OC`, the AC50 under setting [1] is 39.8 µM [falling, single point].

With `O=C(CSc1nnc(-c2ccc(Cl)cc2)n1Cc1ccco1)Nc1ccc2c(c1)OCCO2`, the AC50 under setting [1] was 31.6 µM [falling, partial curve].

For the molecule `Cc1csc2nc(-c3cccc(NC(=O)c4c(F)cccc4F)c3)cn12`, the AC50 under setting [1] was 39.8 µM [falling, single point].

With `CCOc1ccc(NC(=O)c2ccc(N)cc2)cc1`, the AC50 under setting [1] is 12.6 µM [falling, partial curve].

With `O=C(Nc1ccc(S(=O)(=O)N(Cc2ccccc2)c2ccccc2)cc1)c1ccc(F)cc1`, the AC50 under setting [1] was 5.01 µM [falling, partial curve].

On to `O=C(CCc1ccccc1)N1CCc2c([nH]c3ccccc23)C1c1ccc(F)cc1` (configuration not stated), for which the AC50 under setting [1] was 12.6 µM [falling, partial curve].

In the case of `CN1C(=O)c2ccccc2Sc2ccc(NC(=O)c3ccc(C#N)cc3)cc21`, the concentration at half-maximal activity (AC50) under setting [1] was 25.1 µM [falling, partial curve].

For the molecule `COc1ccc(-c2cc(C(=O)Nc3c(C)n(C)n(-c4ccccc4)c3=O)no2)cc1`, the half-maximal activity concentration (AC50) under setting [1] is 15.8 µM [falling, partial curve].

Take `COc1cc(CNc2ccc3[nH]c(=O)[nH]c3c2)cc(Cl)c1OCc1ccc(F)cc1`: under setting [1], the half-maximal activity concentration (AC50) is 0.0631 µM [falling, full curve].

On to `Cc1nn(C(C)(C)C)c(OC(=O)c2c(F)cccc2F)c1Sc1ccccc1`, for which, under setting [1], the AC50 is 25.1 µM [falling, single point].

`COc1cccc(NC(=O)C2CCN(c3nnc(-n4c(C)ccc4C)s3)CC2)c1`: the half-maximal activity concentration (AC50) under setting [1] was 31.6 µM [falling, single point].

With `COc1cccc(CN2CCCN(S(=O)(=O)c3ccc(Br)cc3)CC2)c1`, the AC50 under setting [1] was 20 µM [falling, partial curve].

For the molecule `Cc1ccc(CNC(=O)C2CCCN(Cc3nc(-c4cccc(C)c4)oc3C)C2)cc1` (configuration not stated), the concentration at half-maximal activity (AC50) under setting [1] was 39.8 µM [falling, single point].

Take `Cc1ccc(-c2nc3c(c(SCC(=O)Nc4cccc(C(=O)O)c4)n2)Cc2cccc(C)c2O3)cc1`: the AC50 under setting [1] is 10 µM [falling, partial curve].

For the molecule `O=C(CSc1nc2sc3c(c2c(=O)[nH]1)CCCC3)Nc1ccccc1F`, the AC50 under setting [1] was 15.8 µM [falling, partial curve].

For the molecule `Cc1ccc(NC(=O)CCn2cnc3onc(-c4ccc(F)cc4)c3c2=O)c(Br)c1`, the AC50 under setting [1] is 0.01 µM [falling, full curve, poor fit].

`CC(=O)N1C=CN(C(C)=O)C(c2cn(C)c3ccccc23)C1c1cn(C)c2ccccc12` (configuration not stated): under setting [1], the AC50 is 31.6 µM [falling, single point].

Take `Cc1ccccc1C(=O)Nc1cccc(C(=O)OCc2cc(=O)n3nc(C4CC4)sc3n2)c1`: the AC50 under setting [1] is 3.98 µM [falling, full curve].

Regarding `Cc1ccc(C)c(CN2C(=O)c3ccccc3Sc3ccc(C(=O)NCc4ccc5c(c4)OCO5)cc32)c1`, the concentration at half-maximal activity (AC50) under setting [1] was 6.31 µM [falling, partial curve].

For `COc1ccc(NC(=O)c2c(NC(=O)c3cccc(C)c3)sc3c2CCCC3)cc1`, the AC50 under setting [1] is 7.94 µM [falling, full curve].

Turning to `CC(=O)c1cccc(NC(=O)c2ccc3nc(C(C)C)oc3c2)c1`, the half-maximal activity concentration (AC50) under setting [1] is 31.6 µM [falling, single point].

As to `O=C1c2oc3ccccc3c(=O)c2C(c2cccc(Br)c2)N1c1ccccn1` (configuration not stated), the AC50 under setting [1] was 39.8 µM [falling, single point].

For the molecule `CCCCN(C)C(=O)Cn1cnc2sc(C)c(S(=O)(=O)N3CCN(c4ccccc4OC)CC3)c2c1=O`, under setting [1], the AC50 was 3.16 µM [falling, partial curve].

For the molecule `CCOC(=O)c1[nH]c2ccccc2c1NC(=O)c1cc(OCC)c(OCC)c(OCC)c1`, the AC50 under setting [1] is 1.26 µM [falling, full curve, poor fit].

For `NC(=O)c1sc(=S)n(-c2ccc(Br)cc2)c1N`, the AC50 under setting [1] is 39.8 µM [falling, single point].

For `CCOC(=O)N1CCC(Nc2ccc3nnc(-c4ccccc4)n3n2)CC1`, under setting [1], the concentration at half-maximal activity (AC50) is 10 µM [falling, partial curve].

Regarding `COc1ccc(-c2noc(CSc3nnc(-c4ccncc4)n3-c3ccc(C)c(C)c3)n2)cc1`, under setting [1], the AC50 is 31.6 µM [falling, single point].

Regarding `Clc1ccc(Nc2nc(-c3ccccc3)c3cc(Cl)ccc3n2)cc1`, the AC50 under setting [1] was 20 µM [falling, partial curve].

Turning to `Cc1cc(C)n(CC(O)COc2cccc(OCC(O)Cn3nc(C)cc3C)c2)n1` (configuration not stated), under setting [1], the AC50 was 20 µM [falling, partial curve].

`N#C/C(=C\c1ccc(-c2ccc(C(=O)O)cc2)o1)c1nc2ccccc2[nH]1`: under setting [1], the AC50 is 0.316 µM [falling, full curve].

With `CCCCOc1ccc(C(=O)N(Cc2nc(-c3ccc(Cl)cc3)no2)C(C)C)cc1`, the AC50 under setting [1] is 25.1 µM [falling, single point].
